Reference: publication PMC6140714
No constants are given. Whether binding was seen depends on the method and setting. In cells and extracts the contact can be indirect. A yes stands for co-enrichment or nearness to the bait. Other partners may have been found. One block for each molecule: values may come before it.

Sequences of proteins named here, by UniProt entry; tags and fusion partners are left off.
UniProt O14965: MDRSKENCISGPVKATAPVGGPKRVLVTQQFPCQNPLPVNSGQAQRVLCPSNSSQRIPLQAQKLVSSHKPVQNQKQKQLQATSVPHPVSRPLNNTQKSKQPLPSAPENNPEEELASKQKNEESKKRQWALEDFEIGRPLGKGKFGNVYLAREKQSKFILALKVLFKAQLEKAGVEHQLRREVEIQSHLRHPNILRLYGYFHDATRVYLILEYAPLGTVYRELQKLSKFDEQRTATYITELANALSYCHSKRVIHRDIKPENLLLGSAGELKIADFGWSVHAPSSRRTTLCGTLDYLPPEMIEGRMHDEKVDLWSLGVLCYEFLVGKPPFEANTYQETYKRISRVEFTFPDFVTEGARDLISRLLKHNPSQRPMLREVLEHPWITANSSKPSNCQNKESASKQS
UniProt O00429: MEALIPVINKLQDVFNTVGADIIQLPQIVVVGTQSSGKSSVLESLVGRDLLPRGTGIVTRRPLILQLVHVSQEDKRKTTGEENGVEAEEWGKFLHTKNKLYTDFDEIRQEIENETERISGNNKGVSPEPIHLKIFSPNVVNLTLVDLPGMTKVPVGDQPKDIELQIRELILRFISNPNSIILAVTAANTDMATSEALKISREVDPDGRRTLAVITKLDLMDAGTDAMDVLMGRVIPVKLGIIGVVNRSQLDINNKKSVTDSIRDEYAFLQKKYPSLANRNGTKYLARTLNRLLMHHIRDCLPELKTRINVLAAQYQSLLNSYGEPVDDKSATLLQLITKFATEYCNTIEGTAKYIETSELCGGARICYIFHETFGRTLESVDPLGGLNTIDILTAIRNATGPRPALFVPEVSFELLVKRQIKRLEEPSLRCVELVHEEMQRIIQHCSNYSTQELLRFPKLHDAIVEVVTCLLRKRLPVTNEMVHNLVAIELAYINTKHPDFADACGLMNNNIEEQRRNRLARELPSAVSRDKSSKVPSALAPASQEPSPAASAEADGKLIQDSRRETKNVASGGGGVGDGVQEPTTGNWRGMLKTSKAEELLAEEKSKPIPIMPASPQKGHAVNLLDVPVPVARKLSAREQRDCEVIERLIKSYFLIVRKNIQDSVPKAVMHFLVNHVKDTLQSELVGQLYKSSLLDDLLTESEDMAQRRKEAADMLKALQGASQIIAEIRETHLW

Molecular target: AURKA-GFP (affinity-purified) (human) (UniProt O14965)
Test: affinity purification with mass spectrometry; AURKA-GFP isolated by affinity-purification from whole cell extracts or mitochondrial fractions of HEK293 cells; nanoLC-ESI MS/MS; hits filtered against CRAPome

binding: binds
Molecule: DNM1L (from UniProt O00429 1-736)

binding: binds
B1: MFF (protein, UniProt Q9GZY8 1-342)
chain: MSKGTSSDTSLGRVSRAAFPSPTAAEMAEISRIQYEMEYTEGISQRMRVPEKLKVAPPNADLEQGFQEGVPNASVIMQVPERIVVAGNNEDVSFSRPADLDLIQSTPFKPLALKTPPRVLTLSERPLDFLDLERPPTTPQNEEIRAVGRLKRERSMSENAVRQNGQLVRNDSLWHRSDSAPRNKISRFQAPISAPEYTVTPSPQQARVCPPHMLPEDGANLSSARGILSLIQSSTRRAYQQILDVLDENRRPVLRGGSAAATSNPHHDNVRYGISNIDTTIEGTSDDLTVVDAASLRRQIIKLNRRLQLLEEENKERAKREMVMYSITVAFWLLNSWLWFRR
